Source: article PMC7819943, “Rice protein-binding microarrays: a tool to detect cis-acting elements near promoter regions in rice”
Some of the results follow.

Molecular target: T1, OsSMF1 (Oryza sativa, UniProt Q6ZLB0 1-436)
T1 sequence: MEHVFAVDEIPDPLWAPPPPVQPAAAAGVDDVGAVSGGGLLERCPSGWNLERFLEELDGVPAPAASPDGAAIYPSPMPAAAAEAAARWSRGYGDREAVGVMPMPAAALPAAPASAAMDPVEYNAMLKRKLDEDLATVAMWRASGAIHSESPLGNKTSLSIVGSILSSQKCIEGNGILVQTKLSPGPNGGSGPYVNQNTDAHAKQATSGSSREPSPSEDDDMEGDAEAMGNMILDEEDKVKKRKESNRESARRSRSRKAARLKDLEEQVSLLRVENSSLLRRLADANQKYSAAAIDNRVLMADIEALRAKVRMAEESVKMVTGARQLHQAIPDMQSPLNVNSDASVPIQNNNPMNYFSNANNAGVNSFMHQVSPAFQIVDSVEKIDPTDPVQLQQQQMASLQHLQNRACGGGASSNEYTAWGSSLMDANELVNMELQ
Test: protein-binding microarray (RPBM); PBS, 2% BSA, 51.3 ng/ul salmon testes DNA, 50 uM zinc acetate, 200 nM TF, 25 C, 1 h; high values mean tight binding
Details: protein: recombinant; tags: N-terminal polyhistidine and DsRed monomer fusion (pET32a); chain copies: 2; label: CyDye5-dUTP incorporated in the synthesized complementary strand; 3' TTTTT single-stranded linker to array surface; dsDNA, one strand shown
Procedure, shortened: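 Transcription factors, each fused N-terminally to a polyhistidine tag and DsRed, were expressed in E. coli BL21-CodonPlus and purified on Ni–NTA. A custom Agilent array was made double-stranded by primer extension with Cy5-dUTP and blocked with 2% BSA. It was incubated with 200 nM protein in PBS, 2% BSA, salmon testes DNA and 50 µM zinc acetate at 25 °C for 1 h, then washed. The binding signal is per-feature fluorescence intensity (arbitrary units) read on an Axon 4000B scanner.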

Sequence	binding signal
GAAGAGTGGCAACCGCAGAGCCCACACGTAATCCTTTGCCCGGAGTCACCTAGTGCAG	4960 fluorescence intensity (a.u.)
ACGACGACACGCACGCGCGGGGATGCAGCTTCGACTTCTCCGGAGTCACCTAGTGCAG	3150 fluorescence intensity (a.u.)
TGGGCGCAGGCCGCAAGTCGACTGACCCCGCCGGGCCCAACGGAGTCACCTAGTGCAG	4096 fluorescence intensity (a.u.)
ACGTTGATTAGTTAGTACTAACCTACTCCTACGTGTTAACCGGAGTCACCTAGTGCAG	4580 fluorescence intensity (a.u.)
TAAACCCCACCCGCGGGACTACGTCATCATCCTGCCACTCCGGAGTCACCTAGTGCAG	8440 fluorescence intensity (a.u.)
TAGATCGATAGCCTATCCACGCGGCATCTATCCAGGTCGGCGGAGTCACCTAGTGCAG	5160 fluorescence intensity (a.u.)
CCCCAGGCGCTCACCCGCCACATCCGCTCCGCCTGCCTGCCGGAGTCACCTAGTGCAG	4690 fluorescence intensity (a.u.)
GACTGCTTCGTCGTAACCCTTAGCGAGTAACGTGGCATATCGGAGTCACCTAGTGCAG	4140 fluorescence intensity (a.u.)
CCTCTTGGGTTCACCTCATCAGGCCAAATGCCCATGCAAACGGAGTCACCTAGTGCAG	22700 fluorescence intensity (a.u.)
AGGGACGACCAATGTCAACGCGCTGCGCTAATCACGCGCGCGGAGTCACCTAGTGCAG	3980 fluorescence intensity (a.u.)
GCTGGCGTACGTGGCGGGGCTGCTCGTGTTCGTGCTTGCGCGGAGTCACCTAGTGCAG	10200 fluorescence intensity (a.u.)
ATCACGCGATTAGAGCGAGCGCCACGCCGCGCCGTCGCCGCGGAGTCACCTAGTGCAG	3770 fluorescence intensity (a.u.)
AGAATAGGTGGGTGGCAGAGTCACTGCCACCACCACTATTCGGAGTCACCTAGTGCAG	4920 fluorescence intensity (a.u.)
TGCTACATAAGTGACACGTCAACACCACGTTGTATAAAGACGGAGTCACCTAGTGCAG	53700 fluorescence intensity (a.u.)
ATGCATTCTACGATGCAAAGGTCCACGCACACGTCAGAACCGGAGTCACCTAGTGCAG	11700 fluorescence intensity (a.u.)
TAATTGAACTAGCAGCAAACTGTGGCTGACGCTGACCTGCCGGAGTCACCTAGTGCAG	5580 fluorescence intensity (a.u.)
TGTGTTCAACTATTGCACTACCTCCCTCCTAGTTCGAATCCGGAGTCACCTAGTGCAG	8920 fluorescence intensity (a.u.)
GGCGGCGATGGCGGCCGTGCTGACGGACGATTTCCTGCTCCGGAGTCACCTAGTGCAG	3220 fluorescence intensity (a.u.)
AAGCCGTCTACCACTCACTTGGCCTCCATCGCTCTCTGCTCGGAGTCACCTAGTGCAG	28300 fluorescence intensity (a.u.)
CTCCCTAGCGGCTATGGCCACGCCTCGAGCACCTGATCGACGGAGTCACCTAGTGCAG	3780 fluorescence intensity (a.u.)
GATGTTGGCCATCCGGCTGGTGACGTTCACCGTCTCGTCGCGGAGTCACCTAGTGCAG	6450 fluorescence intensity (a.u.)

Sequence	binding signal
GATAGTAGTAGTCCACCGTACATAATTATTCTCACACCATCGGAGTCACCTAGTGCAG	26900 fluorescence intensity (a.u.)
CATGACTGAAGTGTGACGTGACAAAGCGAAGCAATCAACCCGGAGTCACCTAGTGCAG	6000 fluorescence intensity (a.u.)
ATGCCCATAGAAAATAAAATATATTATTTGTCTCTATCTCCGGAGTCACCTAGTGCAG	27900 fluorescence intensity (a.u.)
GCCTAACTGAGTTGGAGAAGGCACAGTCAAGTGTTAAGGACGGAGTCACCTAGTGCAG	3150 fluorescence intensity (a.u.)
ACTGACGGAGTGGAAGCCTCGCTTCATGATTTTCTAAGGGCGGAGTCACCTAGTGCAG	3140 fluorescence intensity (a.u.)
GAGGGCTGCCGCCGTTGCCAGCAGAGCTGGCAGGGAGCACCGGAGTCACCTAGTGCAG	19300 fluorescence intensity (a.u.)
GGTATTACTGACTGGATTACCATGTGTGCGTCACATCGGACGGAGTCACCTAGTGCAG	8530 fluorescence intensity (a.u.)
GCCCAGAGGCATATGCGTGCGTGGCACCGCGCGGCACTCCCGGAGTCACCTAGTGCAG	18200 fluorescence intensity (a.u.)
CAGATGCAGTACTCTACTCTCTCTTCTCCACTGCTCTCCCCGGAGTCACCTAGTGCAG	3260 fluorescence intensity (a.u.)
ATTAATCATGCGCTGATGACTCACCTCGTTTTGCGTATTTCGGAGTCACCTAGTGCAG	15900 fluorescence intensity (a.u.)
CGAGACCACGACCAGTGGAAGCATCACTGCCTCACTGGCTCGGAGTCACCTAGTGCAG	6430 fluorescence intensity (a.u.)
CTTACCGCCTTCCACGCGCGGTCGTCATCGTTGCGAGCCGCGGAGTCACCTAGTGCAG	5900 fluorescence intensity (a.u.)
CGCTATTTCGATGCCGTTGTCACAATGTCCTGGTTAGTCACGGAGTCACCTAGTGCAG	23700 fluorescence intensity (a.u.)
CTATCGGCTTGAAACCGCCGCACCGTGCACTTGCCGCCAGCGGAGTCACCTAGTGCAG	37300 fluorescence intensity (a.u.)
GGCTCATCTCTCCCATCCTGGCTTAGTTTGATCTGGTTGACGGAGTCACCTAGTGCAG	3380 fluorescence intensity (a.u.)
GAAACGACGCTGACGAGTTTCACCAGGATGAAACTCTTTCCGGAGTCACCTAGTGCAG	3800 fluorescence intensity (a.u.)
GTATGTCAAGTATGTGTGGGCGTCATGCACGCATGCGTGCCGGAGTCACCTAGTGCAG	5150 fluorescence intensity (a.u.)
TATCTATGTCATCCGCAGCCGCAGGCTGACGCGAGAGGAGCGGAGTCACCTAGTGCAG	4040 fluorescence intensity (a.u.)
ACGCCCTACACCGCACACTCTTCTGCACGCATAGTAGCTGCGGAGTCACCTAGTGCAG	3440 fluorescence intensity (a.u.)
CTGGAACTAAAGTTGTGCCAAACAGACCTTAAATTTAGGACGGAGTCACCTAGTGCAG	20800 fluorescence intensity (a.u.)
ATGTCAGCCTCCCTCAACCGACACAGTCAGCCACACCGCTCGGAGTCACCTAGTGCAG	5310 fluorescence intensity (a.u.)

Some of the entries so far, in CSV form.
Sequence,binding signal
CAGATGCAGTACTCTACTCTCTCTTCTCCACTGCTCTCCCCGGAGTCACCTAGTGCAG,3260 fluorescence intensity (a.u.)
ATTAATCATGCGCTGATGACTCACCTCGTTTTGCGTATTTCGGAGTCACCTAGTGCAG,15900 fluorescence intensity (a.u.)
CGAGACCACGACCAGTGGAAGCATCACTGCCTCACTGGCTCGGAGTCACCTAGTGCAG,6430 fluorescence intensity (a.u.)
CTTACCGCCTTCCACGCGCGGTCGTCATCGTTGCGAGCCGCGGAGTCACCTAGTGCAG,5900 fluorescence intensity (a.u.)
CGCTATTTCGATGCCGTTGTCACAATGTCCTGGTTAGTCACGGAGTCACCTAGTGCAG,23700 fluorescence intensity (a.u.)
CTATCGGCTTGAAACCGCCGCACCGTGCACTTGCCGCCAGCGGAGTCACCTAGTGCAG,37300 fluorescence intensity (a.u.)
GGCTCATCTCTCCCATCCTGGCTTAGTTTGATCTGGTTGACGGAGTCACCTAGTGCAG,3380 fluorescence intensity (a.u.)
GAAACGACGCTGACGAGTTTCACCAGGATGAAACTCTTTCCGGAGTCACCTAGTGCAG,3800 fluorescence intensity (a.u.)
GTATGTCAAGTATGTGTGGGCGTCATGCACGCATGCGTGCCGGAGTCACCTAGTGCAG,5150 fluorescence intensity (a.u.)
TATCTATGTCATCCGCAGCCGCAGGCTGACGCGAGAGGAGCGGAGTCACCTAGTGCAG,4040 fluorescence intensity (a.u.)
ACGCCCTACACCGCACACTCTTCTGCACGCATAGTAGCTGCGGAGTCACCTAGTGCAG,3440 fluorescence intensity (a.u.)
CTGGAACTAAAGTTGTGCCAAACAGACCTTAAATTTAGGACGGAGTCACCTAGTGCAG,20800 fluorescence intensity (a.u.)
